Data as given in paper PMC5490171.
Results are given in words; binding and its absence hold for the method and conditions named. Binding seen in cells or lysates may run through a third protein. Some results given as binding are weak or reduced against the parent protein; the word gives no strength.

Chains of the proteins cited; added tags and fusions are not shown.
UniProt Q96RE9: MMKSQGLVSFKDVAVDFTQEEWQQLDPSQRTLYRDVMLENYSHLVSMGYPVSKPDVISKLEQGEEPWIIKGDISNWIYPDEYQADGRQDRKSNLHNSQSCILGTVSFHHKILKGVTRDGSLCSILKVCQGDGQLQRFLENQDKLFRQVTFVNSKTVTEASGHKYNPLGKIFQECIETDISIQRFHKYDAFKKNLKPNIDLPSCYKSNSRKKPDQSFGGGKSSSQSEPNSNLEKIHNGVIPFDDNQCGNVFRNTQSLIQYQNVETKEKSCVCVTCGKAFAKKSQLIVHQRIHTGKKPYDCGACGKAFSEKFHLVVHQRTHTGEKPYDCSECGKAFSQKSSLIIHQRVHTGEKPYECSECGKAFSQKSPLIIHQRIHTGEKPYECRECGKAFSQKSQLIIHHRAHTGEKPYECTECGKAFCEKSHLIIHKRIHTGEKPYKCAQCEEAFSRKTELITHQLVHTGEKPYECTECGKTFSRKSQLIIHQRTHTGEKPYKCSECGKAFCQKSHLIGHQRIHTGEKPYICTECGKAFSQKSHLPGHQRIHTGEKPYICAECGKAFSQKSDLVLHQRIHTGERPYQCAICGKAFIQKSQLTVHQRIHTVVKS
UniProt Q13263: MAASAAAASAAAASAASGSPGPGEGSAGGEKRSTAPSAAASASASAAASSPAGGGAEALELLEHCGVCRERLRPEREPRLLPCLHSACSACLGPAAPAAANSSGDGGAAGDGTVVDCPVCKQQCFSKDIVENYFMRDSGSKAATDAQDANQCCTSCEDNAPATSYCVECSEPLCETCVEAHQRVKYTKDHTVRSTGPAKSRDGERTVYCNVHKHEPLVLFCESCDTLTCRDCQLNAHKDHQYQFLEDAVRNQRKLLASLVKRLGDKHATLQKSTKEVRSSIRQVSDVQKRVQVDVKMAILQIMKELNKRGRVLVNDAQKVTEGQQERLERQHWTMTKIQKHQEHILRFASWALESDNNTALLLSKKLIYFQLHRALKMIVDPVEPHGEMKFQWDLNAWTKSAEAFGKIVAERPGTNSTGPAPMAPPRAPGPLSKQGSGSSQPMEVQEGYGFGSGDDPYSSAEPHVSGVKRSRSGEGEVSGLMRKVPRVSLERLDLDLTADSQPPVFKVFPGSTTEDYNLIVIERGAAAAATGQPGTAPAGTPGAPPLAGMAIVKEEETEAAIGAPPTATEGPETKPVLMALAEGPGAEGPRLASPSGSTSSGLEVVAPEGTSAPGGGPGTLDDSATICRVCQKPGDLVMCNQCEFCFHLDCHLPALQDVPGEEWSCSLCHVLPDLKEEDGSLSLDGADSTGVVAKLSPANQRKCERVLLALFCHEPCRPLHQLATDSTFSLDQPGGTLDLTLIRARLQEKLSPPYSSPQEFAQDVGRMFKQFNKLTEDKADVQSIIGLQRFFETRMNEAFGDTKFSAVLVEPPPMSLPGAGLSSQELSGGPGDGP

Molecular target: Flag-ZNF300 (human) (UniProt Q96RE9)
Assay: co-IP; HEK293T cells co-transfected with Flag-ZNF300 and HA-KAP1, lysed after 24 h; lysate incubated with Flag monoclonal antibody and GammaBind Plus-Sepharose overnight at 4 °C, beads washed five times with lysis buffer; SDS-PAGE and western blot

## HA-KAP1 (from UniProt Q13263 1-835)
  binding: binds
